In PubChem BioAssay AID248 (DTP/NCI, 2004):
The list shows only some results of the screen, not a fair sample: it gathers some chemical classes. Other doses and runs of a compound may be missing. T/C is the treated group as % of the vehicle group. Some doses have a count of surviving animals in place of a T/C: the source holds a T/C of zero for them, seemingly a mark for toxic or unscored doses. Some survivor counts are full or nearly so, which does not show that the dose was tolerated: the source hardly ever lists a survival T/C far under the control, and the zero likely stands for such cases as well. Survivors were counted at the toxicity check, usually on the fifth day, unless a day is given; later deaths do not show. Schedules are NCI's codes, taken here to give the interval after Q, in days (D) or hours (H), and the number of doses after X. Some complexes appear as separate parts, the way the source draws them; their charges need not add up. For survival time, the PubChem record calls one and a half times the control and up active, and a quarter to a half above the control has no call in these data; cut-offs in other NCI protocols can differ. Some schedules carry Z or #; the key to these is not given. Some T/C values carry the count of animals alive at the toxicity check (mostly the fifth day); without a count or a note in brackets, all were alive then.

System: L1210 leukemia ip in BDF1 mice, survival T/C
Assay: NCI In Vivo Anticancer Drug Screen. Data for tumor model L1210 Leukemia (intraperitoneal) in B6D2F1 (BDF1) mice
Settings: T/C endpoint: mean survival time, higher T/C = longer survival
[1] = dose: 12.5 mg/kg/injection, schedule: Q01DX009 (ip), vehicle: saline
[2] = dose: 25.0 mg/kg/injection, schedule: Q01DX009 (ip), vehicle: saline
[3] = dose: 25.0 mg/kg/injection, schedule: Q04DX003 (ip), vehicle: saline
[4] = dose: 50.0 mg/kg/injection, schedule: Q01DX009 (ip), vehicle: saline
[5] = dose: 50.0 mg/kg/injection, schedule: Q04DX003 (ip), vehicle: saline
[6] = dose: 100.0 mg/kg/injection, schedule: Q01DX001 (ip), vehicle: saline
[7] = dose: 200.0 mg/kg/injection, schedule: Q01DX001 (ip), vehicle: saline
[8] = dose: 400.0 mg/kg/injection, schedule: Q01DX001 (ip), vehicle: saline
[9] = dose: 100.0 mg/kg/injection, schedule: Q01DX009 (ip), vehicle: saline
[10] = dose: 200.0 mg/kg/injection, schedule: Q01DX009 (ip), vehicle: saline
[11] = dose: 100.0 mg/kg/injection, schedule: Q04DX003 (ip), vehicle: saline
[12] = dose: 200.0 mg/kg/injection, schedule: Q04DX003 (ip), vehicle: saline
[13] = dose: 400.0 mg/kg/injection, schedule: Q04DX003 (ip), vehicle: saline
[14] = dose: 100.0 mg/kg/injection, schedule: Q04DX003 (ip), vehicle: saline with Tween-80

## ClCCN1CCNCC1
[1]
  T/C: 100 % of control [5 of 6 alive]
dose: 12.5 mg/kg/injection, schedule: Q04DX003 (ip), vehicle: saline
  T/C: 101 % of control
[2]
  T/C: 103 % of control
[3]
  T/C: 113 % of control
[4]
  survivor count: 6 of 6
[5]
  T/C: 100 % of control

## O=[As](O)(c1ccccc1Br)c1ccccc1Br
dose: 75.0 mg/kg/injection, schedule: Q01DX001 (ip), vehicle: saline
  T/C: 100 % of control
dose: 150.0 mg/kg/injection, schedule: Q01DX001 (ip), vehicle: saline
  T/C: 100 % of control [4 of 6 alive]
dose: 300.0 mg/kg/injection, schedule: Q01DX001 (ip), vehicle: saline
  survivor count: 3 of 6

## CCCCP(Cl)CCCC
dose: 100.0 mg/kg/injection, schedule: Q04DX003 (ip), vehicle: Klucel (hydroxypropylcellulose) (HPC)
  T/C: 105 % of control
dose: 200.0 mg/kg/injection, schedule: Q04DX003 (ip), vehicle: Klucel (hydroxypropylcellulose) (HPC)
  T/C: 99 % of control
dose: 400.0 mg/kg/injection, schedule: Q04DX003 (ip), vehicle: Klucel (hydroxypropylcellulose) (HPC)
  survivor count: 6 of 6

## O=C(Nc1ncc([N+](=O)[O-])s1)c1cc([N+](=O)[O-])cc([N+](=O)[O-])c1
dose: 5.0 mg/kg/injection, schedule: Q01DX009 (ip), vehicle: Klucel (hydroxypropylcellulose) (HPC)
  T/C: 87 % of control
dose: 5.0 mg/kg/injection, schedule: Q04DX003 (ip), vehicle: Klucel (hydroxypropylcellulose) (HPC)
  T/C: 115 % of control
dose: 10.0 mg/kg/injection, schedule: Q01DX009 (ip), vehicle: Klucel (hydroxypropylcellulose) (HPC)
  T/C: 90 % of control
dose: 10.0 mg/kg/injection, schedule: Q04DX003 (ip), vehicle: Klucel (hydroxypropylcellulose) (HPC)
  T/C: 103 % of control
dose: 20.0 mg/kg/injection, schedule: Q01DX009 (ip), vehicle: Klucel (hydroxypropylcellulose) (HPC)
  T/C: 89 % of control
dose: 20.0 mg/kg/injection, schedule: Q04DX003 (ip), vehicle: Klucel (hydroxypropylcellulose) (HPC)
  T/C: 101 % of control

## NNS(=O)(=O)c1ccc(N(CCCl)CCCl)cc1
dose: 100.0 mg/kg/injection, schedule: Q01DX001 (ip), vehicle: other
  T/C: 111 % of control
dose: 200.0 mg/kg/injection, schedule: Q01DX001 (ip), vehicle: other
  T/C: 92 % of control
dose: 400.0 mg/kg/injection, schedule: Q01DX001 (ip), vehicle: other
  T/C: 101 % of control

## C/C1=C2N=C(/C=C3N=C(/C(C)=C4\[N-]C(C(CC(N)=O)C4(C)CCC(=O)NCC(C)OP(=O)(O)OC4C(CO)OC(n5cnc6cc(C)c(C)cc65)C4O)C4(C)N=C1C(CCC(N)=O)C4(C)CC(N)=O)C(CCC(N)=O)C\3(C)C)C(CCC(N)=O)C/2(C)CC(N)=O.[C-]#N.[Co+2] (configuration not stated)
[6]
  T/C: 96 % of control
[7]
  T/C: 96 % of control
[8]
  T/C: 105 % of control

## CCOP(=O)(Nc1nc2ccccc2[nH]1)OCC
[4]
  T/C: 94 % of control
[9]
  T/C: 105 % of control
[10]
  T/C: 102 % of control

## [O-]/[N+](C/[N+]([O-])=N/O)=N\O
[4]
  T/C: 95 % of control
[6]
  T/C: 88 % of control
[9]
  T/C: 98 % of control
[11]
  T/C: 90 % of control
[7]
  T/C: 93 % of control
[10]
  T/C: 95 % of control
[12]
  T/C: 95 % of control
[8]
  survivor count: 1 of 6
[13]
  survivor count: 1 of 6

## Nc1ncnc2sc(SCCCl)nc12
dose: 100.0 mg/kg/injection, schedule: Q01DX009 (ip), vehicle: saline with Tween-80
  T/C: 93 % of control
dose: 200.0 mg/kg/injection, schedule: Q01DX009 (ip), vehicle: saline with Tween-80
  T/C: 95 % of control
dose: 400.0 mg/kg/injection, schedule: Q01DX009 (ip), vehicle: saline with Tween-80
  survivor count: 2 of 6

## CC#N.CC1[N-]CC[N-]CC[N-]CC[N-]C(C)C2CCCC1[N-]2.F[P-](F)(F)(F)(F)F.[Ni+2] (configuration not stated)
dose: 20.0 mg/kg/injection, schedule: Q01DX001 (ip), vehicle: Klucel (hydroxypropylcellulose) (HPC)
  T/C: 86 % of control
dose: 40.0 mg/kg/injection, schedule: Q01DX001 (ip), vehicle: Klucel (hydroxypropylcellulose) (HPC)
  T/C: 95 % of control
dose: 100.0 mg/kg/injection, schedule: Q01DX001 (ip), vehicle: Klucel (hydroxypropylcellulose) (HPC)
  T/C: 104 % of control
dose: 200.0 mg/kg/injection, schedule: Q01DX001 (ip), vehicle: Klucel (hydroxypropylcellulose) (HPC)
  survivor count: 0 of 3

## CC1C[P+](c2ccccc2)(c2ccccc2)Cc2ccccc21.F[P-](F)(F)(F)(F)F (configuration not stated)
dose: 25.0 mg/kg/injection, schedule: Q04DX003 (ip), vehicle: saline with Tween-80
  survivor count: 3 of 3
dose: 50.0 mg/kg/injection, schedule: Q04DX003 (ip), vehicle: saline with Tween-80
  survivor count: 0 of 3
[14]
  survivor count: 0 of 3

## O=P(Cl)(c1ccccc1)c1ccccc1
[14]
  T/C: 98 % of control
dose: 200.0 mg/kg/injection, schedule: Q04DX003 (ip), vehicle: saline with Tween-80
  T/C: 96 % of control
dose: 400.0 mg/kg/injection, schedule: Q04DX003 (ip), vehicle: saline with Tween-80
  T/C: 95 % of control

## N#Cc1cc([N+](=O)[O-])cc([N+](=O)[O-])c1N
dose: 10.0 mg/kg/injection, schedule: Q01DX001 (ip), vehicle: carboxymethylcellulose (CMC)
  T/C: 97 % of control
dose: 20.0 mg/kg/injection, schedule: Q01DX001 (ip), vehicle: carboxymethylcellulose (CMC)
  T/C: 97 % of control
dose: 40.0 mg/kg/injection, schedule: Q01DX001 (ip), vehicle: carboxymethylcellulose (CMC)
  survivor count: 0 of 4
dose: 80.0 mg/kg/injection, schedule: Q01DX001 (ip), vehicle: carboxymethylcellulose (CMC)
  survivor count: 0 of 4
dose: 100.0 mg/kg/injection, schedule: Q01DX001 (ip), vehicle: carboxymethylcellulose (CMC)
  survivor count: 0 of 4
dose: 200.0 mg/kg/injection, schedule: Q01DX001 (ip), vehicle: carboxymethylcellulose (CMC)
  survivor count: 0 of 4
dose: 400.0 mg/kg/injection, schedule: Q01DX001 (ip), vehicle: carboxymethylcellulose (CMC)
  survivor count: 0 of 4

## NP(=O)(N(CCCl)CCCl)N1CC1 (configuration not stated)
dose: 2.5 mg/kg/injection, schedule: Q01DX Z (ip), vehicle: water
  T/C: 119 % of control
dose: 5.0 mg/kg/injection, schedule: Q01DX Z (ip), vehicle: water
  T/C: 128 % of control
dose: 6.25 mg/kg/injection, schedule: Q01DX009 (ip), vehicle: saline
  T/C: 127 % of control
dose: 10.0 mg/kg/injection, schedule: Q01DX Z (ip), vehicle: water
  T/C: 171 % of control
[1]
  T/C: 155 % of control [5 of 6 alive]
dose: 20.0 mg/kg/injection, schedule: Q01DX Z (ip), vehicle: water
  T/C: 133 % of control
dose: 25.0 mg/kg/injection, schedule: Q01DX001 (ip), vehicle: saline
  T/C: 120 % of control
[2]
  T/C: 247 % of control
[3]
  T/C: 152 % of control
dose: 50.0 mg/kg/injection, schedule: Q01DX001 (ip), vehicle: saline
  T/C: 141 % of control
[4]
  survivor count: 6 of 6
[5]
  T/C: 205 % of control
dose: 80.0 mg/kg/injection, schedule: Q01DX006 (ip), vehicle: water
  survivor count: 4 of 6
[6]
  survivor count: 4 of 6
[9]
  survivor count: 5 of 6
[11]
  survivor count: 6 of 6
dose: 160.0 mg/kg/injection, schedule: Q01DX006 (ip), vehicle: water
  survivor count: 1 of 6
[7]
  survivor count: 0 of 6
[12]
  survivor count: 0 of 6
[8]
  survivor count: 0 of 6
[13]
  survivor count: 0 of 6
